Source: PubChem BioAssay AID652272 (Drosophila RNAi Screening Center, 2013)
Assay: 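Finding fly genes that regulate Hedgehog signal transduction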 (primary screen). Cells: Drosophila clone 8 (Cl8) cells. Reagents: long dsRNA against Drosophila genes. Read-out: 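Firefly light from a Hedgehog-responsive ptc promoter reporter and Renilla reference light, both read on a plate reader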. Direction: firefly Hh reporter signal: higher = more ptc reporter light; Renilla reference signal: higher = more Renilla control light. Rule for the call: 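Called a hit if the two-replicate mean z-score lies below -2 or above +3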. Calls: active = hit: reporter lowered or raised; inactive = not a hit.
The deposit covers about 21,000 reagents; this is an unselected part of those with a known target gene and a result. Over the whole deposit, 503 (2.4%) are marked active. 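Raw plate light values, not normalised; calls rest on replicate z-scores that were not deposited; hits include reporter decreases as well as increases.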 Reagent sequences are not shown. Not given: the amount of reagent, the time to read-out.

CG4619 [DRSC02764] → firefly Hh reporter signal, replicate 1 = 94371; firefly Hh reporter signal, replicate 2 = 61857; Renilla reference signal, replicate 1 = 4073; Renilla reference signal, replicate 2 = 2380; call = inactive
Cngl (Cyclic nucleotide-gated ion channel-like) [DRSC19089] → firefly Hh reporter signal, replicate 1 = 8.40e5; firefly Hh reporter signal, replicate 2 = 2.80e5; Renilla reference signal, replicate 1 = 44832; Renilla reference signal, replicate 2 = 6589; call = inactive
Cngl (Cyclic nucleotide-gated ion channel-like) [DRSC19795] → firefly Hh reporter signal, replicate 1 = 1.22e5; firefly Hh reporter signal, replicate 2 = 81212; Renilla reference signal, replicate 1 = 2880; Renilla reference signal, replicate 2 = 1747; call = inactive
Cngl (Cyclic nucleotide-gated ion channel-like) [DRSC20318] → firefly Hh reporter signal, replicate 1 = 1.46e5; firefly Hh reporter signal, replicate 2 = 66855; Renilla reference signal, replicate 1 = 9364; Renilla reference signal, replicate 2 = 2992; call = active
CG1640 [DRSC19750] → firefly Hh reporter signal, replicate 1 = 1.06e5; firefly Hh reporter signal, replicate 2 = 88581; Renilla reference signal, replicate 1 = 3270; Renilla reference signal, replicate 2 = 2016; call = inactive
CG8031 [DRSC16364] → firefly Hh reporter signal, replicate 1 = 1.13e5; firefly Hh reporter signal, replicate 2 = 1.02e5; Renilla reference signal, replicate 1 = 5412; Renilla reference signal, replicate 2 = 4008; call = inactive
Spn55B (Serpin 55B) [DRSC07694] → firefly Hh reporter signal, replicate 1 = 99273; firefly Hh reporter signal, replicate 2 = 7.57e5; firefly Hh reporter signal, replicate 3 = 48177; Renilla reference signal, replicate 1 = 3664; Renilla reference signal, replicate 2 = 45771; call = inactive
ND-20L (NADH dehydrogenase (ubiquinone) 20 kDa subunit-like) [DRSC15414] → firefly Hh reporter signal, replicate 1 = 1.78e5; firefly Hh reporter signal, replicate 2 = 1.24e5; Renilla reference signal, replicate 1 = 6586; Renilla reference signal, replicate 2 = 4101; call = inactive
asRNA:CR43426 (antisense RNA:CR43426) [DRSC11587] → firefly Hh reporter signal, replicate 1 = 2.54e5; Renilla reference signal, replicate 1 = 5014; call = inactive
CG7888 [DRSC10926] → firefly Hh reporter signal, replicate 1 = 1.00e5; firefly Hh reporter signal, replicate 2 = 54244; Renilla reference signal, replicate 1 = 5047; Renilla reference signal, replicate 2 = 1937; call = inactive
Iyd (Iodotyrosine deiodinase) [DRSC10614] → firefly Hh reporter signal, replicate 1 = 56731; firefly Hh reporter signal, replicate 2 = 41365; firefly Hh reporter signal, replicate 3 = 46592; Renilla reference signal, replicate 1 = 3441; Renilla reference signal, replicate 2 = 3604; call = inactive
Iyd (Iodotyrosine deiodinase) [DRSC10615] → firefly Hh reporter signal, replicate 1 = 33995; firefly Hh reporter signal, replicate 2 = 54107; firefly Hh reporter signal, replicate 3 = 48984; Renilla reference signal, replicate 1 = 4149; Renilla reference signal, replicate 2 = 3717; call = inactive

Sorted by “firefly Hh reporter signal, replicate 1” (highest first): 3 of the entries above
asRNA:CR43426 (antisense RNA:CR43426) [DRSC11587] → firefly Hh reporter signal, replicate 1 = 2.54e5; Renilla reference signal, replicate 1 = 5014; call = inactive
ND-20L (NADH dehydrogenase (ubiquinone) 20 kDa subunit-like) [DRSC15414] → firefly Hh reporter signal, replicate 1 = 1.78e5; firefly Hh reporter signal, replicate 2 = 1.24e5; Renilla reference signal, replicate 1 = 6586; Renilla reference signal, replicate 2 = 4101; call = inactive
Spn55B (Serpin 55B) [DRSC07694] → firefly Hh reporter signal, replicate 1 = 99273; firefly Hh reporter signal, replicate 2 = 7.57e5; firefly Hh reporter signal, replicate 3 = 48177; Renilla reference signal, replicate 1 = 3664; Renilla reference signal, replicate 2 = 45771; call = inactive

The listing continues.
Fcp3C (Follicle cell protein 3C) [DRSC18665] → firefly Hh reporter signal, replicate 1 = 1.17e5; firefly Hh reporter signal, replicate 2 = 1.97e5; Renilla reference signal, replicate 1 = 4588; Renilla reference signal, replicate 2 = 7993; call = inactive
ana3 (anastral spindle 3) [DRSC06289] → firefly Hh reporter signal, replicate 1 = 83868; firefly Hh reporter signal, replicate 2 = 48410; Renilla reference signal, replicate 1 = 2160; Renilla reference signal, replicate 2 = 3712; call = inactive
CG17778 [DRSC18504] → firefly Hh reporter signal, replicate 1 = 90148; firefly Hh reporter signal, replicate 2 = 2.23e5; Renilla reference signal, replicate 1 = 3328; Renilla reference signal, replicate 2 = 10016; call = inactive
CG2964 [DRSC00554] → firefly Hh reporter signal, replicate 1 = 1.85e5; firefly Hh reporter signal, replicate 2 = 1.53e5; Renilla reference signal, replicate 1 = 4272; Renilla reference signal, replicate 2 = 3849; call = inactive
CG14286 [DRSC14767] → firefly Hh reporter signal, replicate 1 = 4.34e5; firefly Hh reporter signal, replicate 2 = 76985; Renilla reference signal, replicate 1 = 27130; Renilla reference signal, replicate 2 = 2016; call = inactive
Cyp4p2 (Cytochrome P450 4p2) [DRSC07373] → firefly Hh reporter signal, replicate 1 = 56330; firefly Hh reporter signal, replicate 2 = 78064; Renilla reference signal, replicate 1 = 2784; Renilla reference signal, replicate 2 = 2688; call = inactive
Toll-6 [DRSC11304] → firefly Hh reporter signal, replicate 1 = 1.17e5; Renilla reference signal, replicate 1 = 3576; Renilla reference signal, replicate 2 = 3264; call = inactive
muskelin [DRSC07273] → firefly Hh reporter signal, replicate 1 = 1.10e5; firefly Hh reporter signal, replicate 2 = 92213; Renilla reference signal, replicate 1 = 2695; Renilla reference signal, replicate 2 = 5495; call = inactive
CG8366 [DRSC07153] → firefly Hh reporter signal, replicate 1 = 89913; firefly Hh reporter signal, replicate 2 = 61205; Renilla reference signal, replicate 1 = 2469; Renilla reference signal, replicate 2 = 4720; call = inactive
